Experimental data: PubChem BioAssay AID1224826 (NIAID, 2016)
Aim: 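Regulators of Tlr4 signalling leading to Tnf-alpha expression in macrophages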 (primary screen). Cell system: RAW264.7 G9 macrophages from mouse bearing reporters for p65 (GFP) and the Tnf promoter (mCherry). Knock-down reagent: siRNA pool against mouse genes, 100 nM. Duration: 16 h of LPS stimulation, after 2 days of siRNA transfection. Conditions: bacterial lipopolysaccharide (Salmonella minnesota R595), 10 ng/ml. Read-out: 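Imaged Tnf reporter mCherry in nuclei, minus background, normalised per plate to the median and expressed as robust z-scores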. Reading the numbers: Tnf reporter robust z-score: higher = stronger Tnf promoter reporter signal after LPS. Rule for the call: 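Called active when robust z-score is at most -1.3, matching the median of the Tlr4 knock-down control, or over 3; control wells and wells with under 50 cells never active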. Calls: active = Tnf reporter clearly lowered or raised; inactive = no clear change in Tnf reporter.
The whole screen tested about 17,000 reagents; this is a random part of them. About 1,110 of them (6.6%) count as active. 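Active means lowered or raised reporter signal; replicate intensities are raw and not normalised per plate.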 Unmarked entries are inactive. Reagents against one gene are numbered here. Not all columns of the deposit are shown.

| gene knocked down | reagent no. | Tnf reporter robust z-score | fewer than 50 cells in well |
| --- | --- | --- | --- |
| Gtf2f1 (general transcription factor IIF, polypeptide 1) | 1 | -1.34 (active) | enough cells in well |
| Nwd1 (NACHT and WD repeat domain containing 1) | 1 | -0.31 | enough cells in well |
| Sesn2 (sestrin 2) | 1 | – | fewer than 50 cells per well; well left out of calls |
| Or1aa2 (olfactory receptor family 1 subfamily AA member 2) | 1 | -0.42 | enough cells in well |
| Yrdc (yrdC domain containing (E.coli)) | 1 | 1.33 | enough cells in well |
| Zbed3 (zinc finger, BED type containing 3) | 1 | -1.1 | enough cells in well |
| Ost4 (oligosaccharyltransferase complex subunit 4 (non-catalytic)) | 1 | – | fewer than 50 cells per well; well left out of calls |
| Nipsnap1 (nipsnap homolog 1) | 1 | 2.71 | enough cells in well |
| Grtp1 (GH regulated TBC protein 1) | 1 | 0.35 | enough cells in well |
| Vamp2 (vesicle-associated membrane protein 2) | 1 | 1.98 | enough cells in well |
| Hdgf (heparin binding growth factor) | 1 | -0.26 | enough cells in well |
| Card10 (caspase recruitment domain family, member 10) | 1 | -1.19 | enough cells in well |
| Olfml3 (olfactomedin-like 3) | 1 | 2.44 | enough cells in well |
| Crct1 (cysteine-rich C-terminal 1) | 1 | – | fewer than 50 cells per well; well left out of calls |
| Cst13 (cystatin 13) | 1 | – | fewer than 50 cells per well; well left out of calls |
| Gpr87 (G protein-coupled receptor 87) | 1 | 0.23 | enough cells in well |
| Usp38 (ubiquitin specific peptidase 38) | 1 | -0.1 | enough cells in well |
| Tnks | 1 | – | fewer than 50 cells per well; well left out of calls |
| Tnks | 2 | 0.9 | enough cells in well |
| Glmn (glomulin, FKBP associated protein) | 1 | -0.52 | enough cells in well |
| Frmd4b (FERM domain containing 4B) | 1 | 1.23 | enough cells in well |
| Lctl (lactase-like) | 1 | 0.42 | enough cells in well |
| Chst8 (carbohydrate sulfotransferase 8) | 1 | 3.37 (active) | enough cells in well |
| Zfp35 (zinc finger protein 35) | 1 | -0.87 | enough cells in well |
| Or5e1 (olfactory receptor family 5 subfamily E member 1) | 1 | 1.62 | enough cells in well |
| Dgkb (diacylglycerol kinase, beta) | 1 | 1.96 | enough cells in well |
| Lcor (ligand dependent nuclear receptor corepressor) | 1 | 1.75 | enough cells in well |
| S100a3 (S100 calcium binding protein A3) | 1 | -0.65 | enough cells in well |
| Aknad1 (AKNA domain containing 1) | 1 | 0.19 | enough cells in well |
| AI606181 (expressed sequence AI606181) | 1 | 0.36 | enough cells in well |
| Rad9a (RAD9 checkpoint clamp component A) | 1 | -0.08 | enough cells in well |
| Rpusd1 (RNA pseudouridylate synthase domain containing 1) | 1 | – | fewer than 50 cells per well; well left out of calls |
| Mrpl52 (mitochondrial ribosomal protein L52) | 1 | -0.18 | enough cells in well |
| Apoe (apolipoprotein E) | 1 | -1.3 (active) | enough cells in well |
| Zfp59 (zinc finger protein 59) | 1 | – | fewer than 50 cells per well; well left out of calls |
| Kmt5a (lysine methyltransferase 5A) | 1 | -1.13 | enough cells in well |
| Tnfaip3 (tumor necrosis factor, alpha-induced protein 3) | 1 | 1.16 | enough cells in well |
| Dlc1 (deleted in liver cancer 1) | 1 | -1.47 (active) | enough cells in well |
| Dlc1 (deleted in liver cancer 1) | 2 | -0.92 | enough cells in well |
| Gorasp1 (golgi reassembly stacking protein 1) | 1 | 0.78 | enough cells in well |
| Nme5 (NME/NM23 family member 5) | 1 | -0.19 | enough cells in well |
| Tigar (Trp53 induced glycolysis regulatory phosphatase) | 1 | -1.58 (active) | enough cells in well |
| Gabrg1 (gamma-aminobutyric acid type A receptor subunit gamma 1) | 1 | 0.68 | enough cells in well |
| Tbx15 (T-box 15) | 1 | 1.24 | enough cells in well |
| Slc75a1 | 1 | -1.13 | enough cells in well |
| Sohlh2 | 1 | – | fewer than 50 cells per well; well left out of calls |
| Stfa1 (stefin A1) | 1 | 0.66 | enough cells in well |
| Gfpt1 (glutamine fructose-6-phosphate transaminase 1) | 1 | -0.28 | enough cells in well |
| Pramel27 (PRAME like 27) | 1 | 0.82 | enough cells in well |
| Rpp25l (ribonuclease P/MRP 25 subunit-like) | 1 | – | fewer than 50 cells per well; well left out of calls |
| Rab8a (RAB8A, member RAS oncogene family) | 1 | 1.73 | enough cells in well |
| Proc (protein C) | 1 | -1.32 (active) | enough cells in well |
| Polr3gl (polymerase (RNA) III (DNA directed) polypeptide G like) | 1 | – | fewer than 50 cells per well; well left out of calls |
| Gmip (Gem-interacting protein) | 1 | -0.21 | enough cells in well |
| Alkbh6 (alkB homolog 6) | 1 | 1.52 | enough cells in well |
| Edn3 (endothelin 3) | 1 | -0.88 | enough cells in well |
| Zfp869 (zinc finger protein 869) | 1 | 1.57 | enough cells in well |
| Degs1 (delta 4-desaturase, sphingolipid 1) | 1 | 0.48 | enough cells in well |

Called active (from the list above):
| gene knocked down | reagent no. | Tnf reporter robust z-score | fewer than 50 cells in well |
| --- | --- | --- | --- |
| Gtf2f1 (general transcription factor IIF, polypeptide 1) | 1 | -1.34 (active) | enough cells in well |
| Chst8 (carbohydrate sulfotransferase 8) | 1 | 3.37 (active) | enough cells in well |
| Apoe (apolipoprotein E) | 1 | -1.3 (active) | enough cells in well |
| Dlc1 (deleted in liver cancer 1) | 1 | -1.47 (active) | enough cells in well |
| Tigar (Trp53 induced glycolysis regulatory phosphatase) | 1 | -1.58 (active) | enough cells in well |
| Proc (protein C) | 1 | -1.32 (active) | enough cells in well |
